From paper PMC5379108
These are yes or no findings as the source states them, for the method shown. Binding seen in cells or lysates may run through a third protein. Binding calls can cover weak binding; strength is not graded here.

Sequences of proteins named here, by UniProt entry; tags and fusion partners are left off. A change or cut given only in a name is not applied to a line headed by its entry.
UniProt Q8TEW0: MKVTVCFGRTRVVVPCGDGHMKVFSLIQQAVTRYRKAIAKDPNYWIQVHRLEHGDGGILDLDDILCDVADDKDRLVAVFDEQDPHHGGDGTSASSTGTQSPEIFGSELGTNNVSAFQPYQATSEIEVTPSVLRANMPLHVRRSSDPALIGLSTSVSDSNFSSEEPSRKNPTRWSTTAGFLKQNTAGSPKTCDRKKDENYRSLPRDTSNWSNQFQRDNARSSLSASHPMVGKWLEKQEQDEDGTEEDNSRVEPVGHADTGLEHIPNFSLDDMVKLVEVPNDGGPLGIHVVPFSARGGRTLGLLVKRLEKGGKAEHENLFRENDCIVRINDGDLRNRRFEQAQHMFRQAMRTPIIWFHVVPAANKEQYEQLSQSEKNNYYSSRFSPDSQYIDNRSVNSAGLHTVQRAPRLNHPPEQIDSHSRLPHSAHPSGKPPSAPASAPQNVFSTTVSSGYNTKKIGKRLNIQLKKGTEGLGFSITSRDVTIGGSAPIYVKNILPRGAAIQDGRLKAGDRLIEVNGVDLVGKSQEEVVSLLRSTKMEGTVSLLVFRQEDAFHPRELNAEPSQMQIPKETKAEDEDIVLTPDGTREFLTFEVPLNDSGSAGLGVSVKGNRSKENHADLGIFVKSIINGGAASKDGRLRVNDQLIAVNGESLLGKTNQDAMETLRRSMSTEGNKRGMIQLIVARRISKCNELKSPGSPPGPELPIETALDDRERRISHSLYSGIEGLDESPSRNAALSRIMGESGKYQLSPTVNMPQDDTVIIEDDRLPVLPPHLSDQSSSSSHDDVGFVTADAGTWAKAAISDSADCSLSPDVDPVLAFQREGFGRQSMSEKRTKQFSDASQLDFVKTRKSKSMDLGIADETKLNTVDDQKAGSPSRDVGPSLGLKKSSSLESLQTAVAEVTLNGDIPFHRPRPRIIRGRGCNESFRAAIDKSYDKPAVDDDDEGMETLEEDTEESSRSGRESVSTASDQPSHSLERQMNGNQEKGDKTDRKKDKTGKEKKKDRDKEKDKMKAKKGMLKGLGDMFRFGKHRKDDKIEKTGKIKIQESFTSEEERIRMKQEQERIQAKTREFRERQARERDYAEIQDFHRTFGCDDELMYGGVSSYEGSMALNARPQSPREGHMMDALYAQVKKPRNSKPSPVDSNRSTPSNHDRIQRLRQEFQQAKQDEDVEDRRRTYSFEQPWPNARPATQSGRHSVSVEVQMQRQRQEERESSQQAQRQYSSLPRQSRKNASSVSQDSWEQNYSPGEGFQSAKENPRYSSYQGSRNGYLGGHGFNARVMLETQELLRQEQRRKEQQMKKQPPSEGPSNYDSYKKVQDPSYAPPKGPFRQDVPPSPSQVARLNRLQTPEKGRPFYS
UniProt Q96A65: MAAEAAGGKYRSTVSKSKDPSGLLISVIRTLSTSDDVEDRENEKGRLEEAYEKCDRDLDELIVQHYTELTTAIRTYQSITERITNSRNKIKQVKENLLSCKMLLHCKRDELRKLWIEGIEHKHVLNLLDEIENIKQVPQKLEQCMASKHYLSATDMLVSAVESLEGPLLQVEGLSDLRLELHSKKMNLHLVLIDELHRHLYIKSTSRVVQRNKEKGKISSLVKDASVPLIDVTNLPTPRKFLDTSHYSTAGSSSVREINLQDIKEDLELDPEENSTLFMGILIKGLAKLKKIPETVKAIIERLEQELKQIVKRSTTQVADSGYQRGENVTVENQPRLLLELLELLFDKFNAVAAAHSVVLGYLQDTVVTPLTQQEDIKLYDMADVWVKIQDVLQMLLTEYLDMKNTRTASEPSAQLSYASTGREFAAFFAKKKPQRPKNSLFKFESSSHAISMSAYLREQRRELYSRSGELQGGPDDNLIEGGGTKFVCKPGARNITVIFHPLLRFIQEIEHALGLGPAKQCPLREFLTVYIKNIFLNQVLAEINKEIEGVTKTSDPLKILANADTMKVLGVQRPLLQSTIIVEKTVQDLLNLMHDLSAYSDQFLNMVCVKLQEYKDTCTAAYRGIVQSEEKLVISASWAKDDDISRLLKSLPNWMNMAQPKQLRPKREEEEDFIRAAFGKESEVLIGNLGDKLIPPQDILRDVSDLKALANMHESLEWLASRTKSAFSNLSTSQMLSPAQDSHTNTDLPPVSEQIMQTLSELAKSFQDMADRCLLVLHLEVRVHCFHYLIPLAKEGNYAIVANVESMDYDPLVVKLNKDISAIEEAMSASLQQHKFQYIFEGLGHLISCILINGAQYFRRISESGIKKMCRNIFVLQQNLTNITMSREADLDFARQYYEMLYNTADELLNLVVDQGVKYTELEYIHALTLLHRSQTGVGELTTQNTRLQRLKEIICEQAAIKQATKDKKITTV

How the values were obtained:
[1] = target: Myc-PAR3 (from pKMyc-PAR3b) (human) (UniProt Q8TEW0); experiment: co-IP; HEK293T cells transfected with pKMyc-PAR3b (PKYFP as negative control); immunoprecipitated with anti-Myc (9E10), blotted with anti-Sec8; lysis in 0.1% Triton-X100, 20 mM HEPES pH 7.4, 50 mM NaCl, 2 mM EDTA
[2] = target: SEC8 (endogenous, HEK293T) (human (endogenous in HEK293T)) (UniProt Q96A65); experiment: co-IP; YFP-PAR3 constructs transiently expressed in HEK293T cells; immunoprecipitated with anti-Sec8, blotted with anti-GFP or anti-Sec8

binding [1]	binding [2]	Substance
binds	–	SEC8 (endogenous, HEK293T) (from UniProt Q96A65 1-974)
–	binds	wild-type YFP-PAR3 (from UniProt Q8TEW0-2)
